Data on one molecule can be found in doi:10.1101/733709.

By UniProt entry, the sequences of proteins in these tests, tags left out. Where a name states a change or a piece, a line headed by the entry shows the natural chain unless it says otherwise.
UniProt P25694: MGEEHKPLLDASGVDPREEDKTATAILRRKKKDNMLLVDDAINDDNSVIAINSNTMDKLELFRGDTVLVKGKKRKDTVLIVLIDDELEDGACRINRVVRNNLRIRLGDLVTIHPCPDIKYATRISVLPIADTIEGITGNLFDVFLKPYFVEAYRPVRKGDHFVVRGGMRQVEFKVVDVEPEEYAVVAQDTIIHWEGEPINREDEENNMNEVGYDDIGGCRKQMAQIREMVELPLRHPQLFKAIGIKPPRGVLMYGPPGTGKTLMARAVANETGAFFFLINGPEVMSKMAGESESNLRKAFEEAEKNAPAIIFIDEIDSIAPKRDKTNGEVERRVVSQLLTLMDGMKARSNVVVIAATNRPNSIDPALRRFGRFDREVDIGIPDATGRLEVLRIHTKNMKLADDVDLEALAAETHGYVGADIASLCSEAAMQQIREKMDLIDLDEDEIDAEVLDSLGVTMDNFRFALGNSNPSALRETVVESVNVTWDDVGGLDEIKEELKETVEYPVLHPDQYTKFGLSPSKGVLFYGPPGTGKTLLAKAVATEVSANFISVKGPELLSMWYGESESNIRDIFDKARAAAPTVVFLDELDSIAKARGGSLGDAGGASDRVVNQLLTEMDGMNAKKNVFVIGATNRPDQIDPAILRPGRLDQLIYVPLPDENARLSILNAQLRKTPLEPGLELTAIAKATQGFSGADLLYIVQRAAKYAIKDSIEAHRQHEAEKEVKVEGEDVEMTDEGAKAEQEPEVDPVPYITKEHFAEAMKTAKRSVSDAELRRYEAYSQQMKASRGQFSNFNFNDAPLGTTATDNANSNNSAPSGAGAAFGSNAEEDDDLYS

Results are given in words; binding and its absence hold for the method and conditions named. Binding seen in cells or lysates may run through a third protein. These calls come from enrichment with a bait or labelling near it, and not all partners need be listed.

For the test, the target named is FLAG-tagged Cdc48-C115S (S. cerevisiae) (UniProt P25694). As to the kind of experiment: affinity purification with mass spectrometry.

B1: Rpf2 (protein, UniProt P36160 1-344)
chain: MIRTVKPKNARAKRALVKREAKLVENVKQALFIPGQSCNKNLHDIMVDLSALKKPDMKRFNRKNDIHPFEDMSPLEFFSEKNDCSLMVLMTSSKKRKNNMTFIRTFGYKIYDMIELMVADNFKLLSDFKKLTFTVGLKPMFTFQGAAFDTHPVYKQIKSLFLDFFRGESTDLQDVAGLQHVISMTIQGDFQDGEPLPNVLFRVYKLKSYKSDQGGKRLPRIELVEIGPRLDFKIGRIHTPSPDMVTEAHKKPKQLEMKTKKNVELDIMGDKLGRIHMGKQDLGKLQTRKMKGLKSKFDQGTEEGDGEVDEDYEDEASYSDDGQEYEEEFVSATDIEPSAKRQKK
As for B1, the binding result is recorded as “binds”.
